Source: patent US8940271B2, “Transmucosal administration of drug compositions for treating and preventing disorders in animals” (Abbott Laboratories, priority 2005, dated 2015)

Details: dogs, TMOM, average dose 2.7 mg/kg

plasma concentrations obtained: Significant concentrations
SMILES: CN(C)CCOC(c1ccccc1)c1ccccc1 [diphenhydramine]
